PMC12981028
Results are given in words; binding and its absence hold for the method and conditions named. Binding seen in cells or lysates may run through a third protein. Some binding calls cover weakened binding; strength is not graded here.

Sequences of proteins named here, by UniProt entry; tags and fusion partners are left off.
UniProt P26196: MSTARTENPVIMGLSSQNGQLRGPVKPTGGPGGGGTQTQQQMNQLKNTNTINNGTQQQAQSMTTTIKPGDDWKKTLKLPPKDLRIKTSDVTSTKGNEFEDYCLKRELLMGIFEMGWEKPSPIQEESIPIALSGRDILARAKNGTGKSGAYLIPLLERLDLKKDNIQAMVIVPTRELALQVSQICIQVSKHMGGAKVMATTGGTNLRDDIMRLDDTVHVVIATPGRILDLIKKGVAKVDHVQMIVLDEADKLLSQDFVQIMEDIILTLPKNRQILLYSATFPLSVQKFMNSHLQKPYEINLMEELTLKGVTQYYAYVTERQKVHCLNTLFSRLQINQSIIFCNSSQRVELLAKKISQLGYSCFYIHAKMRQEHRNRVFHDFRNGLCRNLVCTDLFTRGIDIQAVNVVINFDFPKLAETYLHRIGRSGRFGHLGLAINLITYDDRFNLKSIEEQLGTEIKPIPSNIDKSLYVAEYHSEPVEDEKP
UniProt P11142: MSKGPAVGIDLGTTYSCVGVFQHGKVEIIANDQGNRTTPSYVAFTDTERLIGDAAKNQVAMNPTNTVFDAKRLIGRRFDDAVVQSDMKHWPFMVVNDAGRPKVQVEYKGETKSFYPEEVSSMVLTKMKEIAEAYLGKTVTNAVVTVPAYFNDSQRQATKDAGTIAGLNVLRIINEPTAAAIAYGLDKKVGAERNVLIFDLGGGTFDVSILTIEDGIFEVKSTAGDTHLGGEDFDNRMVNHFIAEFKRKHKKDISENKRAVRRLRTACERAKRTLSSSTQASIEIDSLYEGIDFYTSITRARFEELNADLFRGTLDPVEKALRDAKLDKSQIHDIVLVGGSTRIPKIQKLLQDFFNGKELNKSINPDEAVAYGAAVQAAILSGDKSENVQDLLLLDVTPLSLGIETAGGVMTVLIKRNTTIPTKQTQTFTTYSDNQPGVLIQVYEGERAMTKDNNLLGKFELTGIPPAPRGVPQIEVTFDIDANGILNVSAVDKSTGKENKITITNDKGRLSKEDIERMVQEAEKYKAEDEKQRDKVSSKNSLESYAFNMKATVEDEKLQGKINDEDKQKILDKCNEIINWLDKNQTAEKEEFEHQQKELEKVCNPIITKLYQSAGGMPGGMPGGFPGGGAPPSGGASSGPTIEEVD

Target: DDX6 (Rck/p54) (human (endogenous in MCF-7/A and MCF-7/T)) (UniProt P26196)
Assay: co-IP; lysates of drug-resistant cells treated with or without FA; antibody pre-coupled to protein A/G agarose beads, incubated with total protein extract at 4 °C overnight, washed with PBS, western blot

binding: binds
Substance: HSC70 (from UniProt P11142 1-646)
